The other results are listed elsewhere or left out. These are further read-outs of the screen, such as a control signal, another cell line or another target. No call is given for them. Most of these compounds were active or inconclusive in the main read-out, so they are no random draw. Words in brackets tell the shape of the fitted curve; partial curves, single points and poor fits give uncertain potencies.
Test: qHTS Assay for Modulators of Lamin A Splicing
Conditions: HeLa LMNA splicing GFP/RFP minigene ratio, 48 h
From the text: NCGC Assay Overview: Hutchinson-Gilford Progeria Syndrome (HGPS) is a pediatric premature aging disease caused by a spontaneous mutation in the lamin A/C (LMNA) gene. The mutation activates a cryptic splice site in the LMNA pre-mRNA which results in production of a pre-lamin A protein that cannot be processed properly. The mutant protein accumulates in the nucleus and negatively affects numerous cellular functions. Correction of the splicing defect in HGPS patient cells using a targeted oligonucleotide (exo11) leads to reversal of the cellular disease phenotypes. To identify small molecule modulators of aberrant LMNA splicing, a homogenous assay was constructed in HeLa cells that used a GFP containing minigene to report on correction of aberrant splicing in lamin A and a RFP (DsRed2) to report on cell viability, uniformity and nonspecific effects on the assay signal. This assay was adapted to laser-scanning microplate cytometry (Acumen, TTP Labtech) where miniaturization of the assay to a 1,536-well plate format was possible. References: Bowen, W. P.; Wylie, P. G. Application of Laser-Scanning Fluorescence Microplate Cytometry in High Content Screening. Assay Drug Dev Technol 2006;4:209-221. Scaffidi P, Misteli T. Reversal of the cellular phenotype in the premature aging disease Hutchinson-Gilford progeria syndrome. Nat.
NCGC Assay Protocol Summary: Reagents/Controls: Stable clones expressing DsRed2 and lamin A-EGFP were generated by Cell and Molecular Technologies in S3 HeLa cells. HeLa cells were prepared for the assay when they were 70-90% confluent. The cells were counted and resuspended in Opti-MEM I (no phenol red; Gibco), 2% FBS, 1% penicillin/ streptomycin (Gibco) at concentration of 120 cells/uL concentration. The suspension was passed through a Falcon basket filter with pore size 40um (Beckton Dickson). Control titrations: column […] 1536-well plate contained a sixteen point titration (1:2 dilutions) in duplicate of ancitabine (Sigma: A8598) beginning at 40 uM final concentration. Column 2 contained a sixteen point titration (1:2 dilutions) of cycloheximide beginning at 1.4 mM final concentration. Column 3 contained ancitabine at 40 uM and column 4 contained was the vehicle control (0.5% DMSO final concentration). Assay Steps: 5 uL of HeLa cells were plated in Aurora LoBase black clear bottom (cyclic-olefin polymer) 1536-well plates at a final density of 600 cells/well. Controls and library compounds were added with a 1536-well pin array using the Kalypsys pin-tool. The plates were then incubated for 48 hrs in a cell-culture incubator (37 °C; 5% CO2, 98% humidity). Following incubation the plates were read on the Acumen Explorer using the 488 nm laser. Data was collected on objects between 10 and 100 um in size. Cell objects were defined by a 15 um width x 10 um depth filter. The ratio of the total object intensity in PMT1 (500-530 nm emission; GFP) over PMT3 (575-640 nm emission; RFP) was calculated for analysis. Keywords: NIH Roadmap, MLSCN, MLI, MLSMR, qHTS, NCGC, lamin A, Progeria, RNA splicing.

[1] = measured here: GFP splicing reporter channel
[2] = measured here: RFP viability control channel

With `CCOc1ccc(CCNC(=O)c2sc3ncccc3c2-n2cccc2)cc1OCC` as the compound, how does the AC50 [1] read?
The AC50 was 7.94 µM [falling, partial curve].

With `O=C(CSc1nnc(CCc2ccccc2)n1-c1ccc(Cl)cc1)c1ccccc1` as the compound, how does the AC50 [2] read?
The AC50 was 28.2 µM [rising, single point].

For `COc1cc(CCC(=O)Nc2ccc(Br)c(C(F)(F)F)c2)cc(OC)c1OC`, which AC50 [2] is on record?
The AC50 was 35.5 µM [rising, single point].

With `O=C(OOC(=O)c1ccccc1)c1ccccc1` as the compound, how does the AC50 [1] read?
Its AC50 is 0.02 µM [falling, full curve, poor fit].

What about the AC50 [2] of the same compound?
Its AC50 is 0.00631 µM [falling, full curve, poor fit].

With `CC(=O)C(Sc1nn(C)c(=S)s1)C(=O)Nc1ccccc1` (centres undefined) as the compound, how does the AC50 [2] read?
Its AC50 is 0.0316 µM [rising, full curve, poor fit].

With `Fc1ccc(N2CCN(C3=Nc4cccc5cccc3c45)CC2)cc1` as the compound, how does the AC50 [2] read?
The AC50 was 14.1 µM [rising, single point].

For `Cc1cc(C)n(-c2ccc3nncn3n2)n1`, which AC50 [2] is on record?
The AC50 was 3.16 µM [falling, partial curve].

With `Cc1cccc(N2CCN(C(=O)CCNS(=O)(=O)c3ccc4c(c3)CCC(=O)N4)CC2)c1C` as the compound, how does the AC50 [1] read?
The AC50 was 12.6 µM [rising, single point].

What about the AC50 [2] of the same compound?
Its AC50 is 17.8 µM [rising, single point].

With `CC(C)(C)c1cc(=O)n(-c2ccccc2)[nH]1` as the compound, how does the AC50 [1] read?
The AC50 was 11.2 µM [rising, partial curve, poor fit].

And the AC50 [2]?
Its AC50 is 12.6 µM [rising, partial curve, poor fit].

With `CN(C)CCCn1c(N)c(C#N)c2nc(C#N)c(C#N)nc21` as the compound, how does the AC50 [2] read?
The AC50 was 17.8 µM [rising, single point].

Which AC50 [1] does the source give for `Cc1cc(Br)c(NC(=O)CCl)c(Br)c1` here?
Its AC50 is 2.82 µM [falling, single point].

Which AC50 [1] does the source give for `CCOC(=O)N1CCN(C(=O)CSc2ccc3nnc(CCNC(=O)c4ccccc4)n3n2)CC1` here?
Its AC50 is 0.0708 µM [rising, full curve, poor fit].

With `Cc1cccc(Nc2nc(N)nc(CSC(=S)N3CCOCC3)n2)c1` as the compound, how does the AC50 [2] read?
The AC50 was 35.5 µM [rising, single point].

Which AC50 [1] does the source give for `Cc1ccc2oc(=O)c(/C=C(\O)c3ccccc3)nc2c1` here?
Its AC50 is 0.0355 µM [rising, full curve, poor fit].

And the AC50 [2]?
Its AC50 is 0.501 µM [rising, full curve].

What does the source list for `O=C(O)c1nc(=O)[nH]c(=O)[nH]1`?
AC50 [1]: 0.0282 µM [falling, full curve]; AC50 [2]: 0.282 µM [rising, full curve, poor fit]

For `CCOC(=O)c1nnc(-c2ccccc2)nc1Sc1ccccc1Cl`, which AC50 [1] is on record?
The AC50 was 35.5 µM [falling, single point].

What about the AC50 [2] of the same compound?
The AC50 was 35.5 µM [falling, single point].

With `COc1ccc(-c2nnc(SCC(=O)NC3CCCC3)nc2-c2ccc(OC)c(OC)c2)cc1OC` as the compound, how does the AC50 [2] read?
The AC50 was 3.98 µM [falling, full curve].

What does the source list for `CCCCOc1ccc(Br)cc1CSC(=N)N`?
AC50 [1]: 10 µM [rising, partial curve, poor fit]; AC50 [2]: 11.2 µM [rising, partial curve]

Which AC50 [2] does the source give for `COc1ccc2[nH]cc(C(=O)CN(C)CCc3ccc(OC)c(OC)c3)c2c1` here?
Its AC50 is 14.1 µM [rising, partial curve, poor fit].

Which AC50 [1] does the source give for `O=C(NCc1ccccc1)C1CCN(S(=O)(=O)c2ccc3c(c2)CCCN3C(=O)C2CCC2)CC1` here?
The AC50 was 0.0501 µM [falling, full curve].

What about the AC50 [2] of the same compound?
The AC50 was 0.0224 µM [falling, full curve, poor fit].

Which AC50 [2] does the source give for `COc1ccc(CN2CCN(C(=O)CC(C)C)CC2)c2ccccc12` here?
Its AC50 is 17.8 µM [rising, single point].

For `O=C(NCc1ccccn1)c1cn(CCc2ccccc2)nn1`, which AC50 [1] is on record?
The AC50 was 8.91 µM [falling, partial curve, poor fit].

With `COc1ccc2occ(C(=O)c3ccc(N=C(C)N(C)C)cc3)c2c1` as the compound, how does the AC50 [1] read?
The AC50 was 17.8 µM [rising, single point].

With `O=C(Nc1ccc(Br)cc1)C1CCN(C(=O)c2ccc(F)cc2)CC1` as the compound, how does the AC50 [2] read?
The AC50 was 35.5 µM [rising, single point].

With `COc1ccccc1OCC(=O)NCCC1=CCCCC1` as the compound, how does the AC50 [2] read?
The AC50 was 0.158 µM [rising, full curve, poor fit].

With `CCCNC(=O)c1ccc2c(c1)sc1nc(-c3ccc(C)cc3)cn12` as the compound, how does the AC50 [1] read?
The AC50 was 0.562 µM [rising, full curve].

What about the AC50 [2] of the same compound?
The AC50 was 0.562 µM [rising, full curve, poor fit].

With `CCSc1nc2c(c(-c3ccc(C)o3)c1C#N)CCCC2` as the compound, how does the AC50 [2] read?
The AC50 was 31.6 µM [rising, single point].

With `Cc1cc(C)cc(NC(=S)NCCc2c[nH]c3ccccc23)c1` as the compound, how does the AC50 [1] read?
The AC50 was 35.5 µM [rising, single point].

Which AC50 [2] does the source give for `O=C(CCCC(=O)NCc1ccc(F)cc1)NCc1ccc(F)cc1` here?
The AC50 was 0.794 µM [falling, full curve, poor fit].

Which AC50 [1] does the source give for `COc1ccc(Cn2c(CCC(=O)Nc3ccc(CC#N)cc3)nc3cccnc32)cc1` here?
The AC50 was 20 µM [falling, single point].

And the AC50 [2]?
Its AC50 is 15.8 µM [falling, single point].

For `CC(O)Cn1cnc2c1c(=O)n(C)c(=O)n2C` (centres undefined), which AC50 [1] is on record?
The AC50 was 2.82 µM [rising, partial curve, poor fit].

And the AC50 [2]?
The AC50 was 2.51 µM [rising, partial curve, poor fit].

Which AC50 [2] does the source give for `CC1CCn2c(nc3cc(C(=O)NCc4ccccc4)ccc32)C1` (centres undefined) here?
Its AC50 is 0.562 µM [falling, full curve].

For `O=C(CNC(=O)c1ccccc1)OCc1cc(=O)n2ccsc2n1`, which AC50 [2] is on record?
Its AC50 is 5.62 µM [falling, single point].

With `Cc1cccc(N2CCN(C(=O)c3ccc4c(c3)N(Cc3cccc(Cl)c3)C(=O)c3ccccc3S4=O)CC2C)c1` (centres undefined) as the compound, how does the AC50 [1] read?
The AC50 was 3.98 µM [falling, full curve, poor fit].

For `COc1ccc(C(=O)Nc2nc3c(s2)CCCC3)cc1Cl`, which AC50 [1] is on record?
Its AC50 is 35.5 µM [falling, single point].

And the AC50 [2]?
The AC50 was 35.5 µM [falling, single point].

Which results are given for `CCCn1cc(S(=O)(=O)c2ccc(CC)cc2)c(=O)c2cc(F)c(N(CC)CC)cc21`?
AC50 [1]: 0.02 µM [falling, partial curve, poor fit]; AC50 [2]: 0.02 µM [falling, full curve, poor fit]
